Measurements published in PubChem BioAssay AID1259415 (National Center for Advancing Translational Sciences (NCATS), 2018).
The campaign covered roughly 410,000 compounds. About 18,000 (4.4%) were called active. The inconclusive results got no clear call from the source; some entries with a clear call stand among them for comparison. Rule as the data show it: active = activity change below about -60%; inconclusive = no clear call, values can overlap the other calls; inactive = above about -39%.

Experiment: qHTS Assay for inhibitors of the human cytomegalovirus (HCMV)
Settings: HFF cells, HCMV-luciferase reporter, 72 h; at 57.5 µM; stronger effect = lower value
In short: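 Human foreskin fibroblasts infected with luciferase-reporter HCMV at MOI 1 PFU/cell, compounds at two doses. Luciferase measured 72 h post infection; normalized to buffer-only basal and Salinomycin (10uM) controls.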
% is scaled to controls: 0 for no effect and ±100 for the full control effect.

SMILES | activity change, negative = inhibition
CCC(C(=O)NCCCN(CC)Cc1ccccc1)n1nc(C)c2sc3ccccc3c2c1=O (stereo not drawn) | inconclusive: -45.6%
COC(=O)c1cc(S(=O)(=O)NCC2CCN(Cc3ccc(C)cc3)CC2)c[nH]1 | inconclusive: -41.4%
Cn1c(SCc2cccc([N+](=O)[O-])c2)nc2ccccc2c1=O | inconclusive: -44.6%
Oc1ccccc1CNc1ccc(Br)cn1 | active: -105%
O=C(Nc1ccccn1)c1ccc(S(=O)(=O)c2ccc(Cl)cc2)cc1 | active: -63.6%
CC(C)(C)c1cc(CN2CCCC(O)C2)c(O)c(C(C)(C)C)c1 (stereo not drawn) | inconclusive: -42.8%
CCCC(=O)C1=C(O)C(C(=O)OC)C(C)(C)CC1=Nc1ccccc1 (stereo not drawn) | inactive: 6.76%
c1ccc(Cn2ccc(-c3cnc(-c4ccccc4)s3)n2)cc1 | inactive: 57.6%
CC(=O)Nc1ccc(NC(=S)Nc2ccc(Br)cc2)cc1 | inconclusive: -56.2%
O=C(N/N=C/c1cc(Br)ccc1O)Nc1ccccc1 | inconclusive: -42.2%
O=C(NCc1nnnn1-c1ccc(F)cc1)c1ccc([N+](=O)[O-])o1 | inconclusive: -42.6%
CC1(C)CCN2CCC(C)(C)c3c(O)ccc1c32 | active: -91.4%
COc1ccccc1N(C)S(=O)(=O)c1ccc(Cl)c(C(=O)Nc2cccc(C)n2)c1 | inconclusive: -49.1%
COc1cccc(NC(=O)C2CC2(c2cccc(OC)c2)c2cccc(OC)c2)c1 (stereo not drawn) | inactive: -2.27%
CCOC(=O)Cn1c(CCC(=O)O)ccc1-c1ccc(F)cc1 | inconclusive: -56.2%
COc1ccc2cc(-c3cc(C(=O)OCC(=O)NC4CCS(=O)(=O)C4)c4ccccc4n3)ccc2c1 (stereo not drawn) | inactive: 65.7%
CCOC(=O)N1CCN(C(=O)CC(C(=O)N2CCc3ccccc32)n2ccnc2)CC1 (stereo not drawn) | inactive: 64.3%
CN(C)/C=C/C(=O)c1ccccc1 | inactive: -0.0738%
CC(C)NC(=S)n1cc(C(=O)c2cc(Cl)cc(Cl)c2O)cn1 | inconclusive: -43.3%
O=C(Nc1ccc(F)c(S(=O)(=O)N2CCOCC2)c1)C1CCCCC1 | inactive: -0.52%
O=S(=O)(c1cccc(-c2csc(-c3cccnc3)n2)c1)N1CCOCC1 | inconclusive: -40%
CN(c1ncnc(N)c1[N+](=O)[O-])C1CCS(=O)(=O)C1 (stereo not drawn) | active: -74.2%

Some of the entries above, reformatted:

| SMILES | activity change, negative = inhibition |
| --- | --- |
| O=C(NCc1nnnn1-c1ccc(F)cc1)c1ccc([N+](=O)[O-])o1 | inconclusive: -42.6% |
| COc1ccc2cc(-c3cc(C(=O)OCC(=O)NC4CCS(=O)(=O)C4)c4ccccc4n3)ccc2c1 (stereo not drawn) | inactive: 65.7% |
| O=C(Nc1ccc(F)c(S(=O)(=O)N2CCOCC2)c1)C1CCCCC1 | inactive: -0.52% |

The list goes on.

SMILES | activity change, negative = inhibition
COc1ccc(-n2nc3c(c2NC(=O)COc2ccccc2F)CS(=O)(=O)C3)cc1 | inconclusive: -42.9%
COC(=O)C1(F)C(=O)NC(=O)NC1OC (stereo not drawn) | inconclusive: -48.4%
COc1ccc(-c2[nH]ncc2C=O)cc1OC | inactive: 1.95%
N#CCCCSc1nnc(CSc2nc3ccccc3s2)n1-c1ccccc1 | inconclusive: -40.2%
O=C(c1ccc(CS(=O)Cc2ccccc2Cl)o1)N1CCN(c2cccc(Cl)c2)CC1 (stereo not drawn) | inactive: -23.3%
COc1cccc(N(C(=O)c2cccs2)c2nc3ccccc3s2)c1 | active: -101%
O=C(Cn1c(CN2CCCCC2)nc2ccccc2c1=O)NC1CCCCC1 | inconclusive: -56.8%
CC(=O)N1CCc2cc(S(=O)(=O)NCCCOC(C)C)ccc21 | inconclusive: -47.8%
Cc1cccc(-c2noc(-c3ccc(N4CCN(C)CC4)c([N+](=O)[O-])c3)n2)c1 | active: -77.7%
Cc1ccc(C)c(CN2CCC(CNC(=O)c3cc4ccc5cccnc5c4[nH]3)CC2)c1 | inconclusive: -45%
Cc1ccc(NC(=O)CSc2nc3c(c(=O)[nH]2)CCC3)c(C)c1 | inconclusive: -49.6%
CC1CCN(c2nc3ccc(C(=O)N4CCN(Cc5ccc6c(c5)OCO6)CC4)cc3s2)CC1 | inconclusive: -54.9%
CCOc1ccc(CN(C)CC(=O)Nc2cc(C)c(C)cc2[N+](=O)[O-])cc1 | inactive: -18.7%
CCN(CC)C(=O)Cn1cnc2sc(C(=O)N3CCN(Cc4ccc5c(c4)OCO5)CC3)c(C)c2c1=O | active: -97.1%
Cc1cc(C(=O)Oc2cccnc2)ccc1[N+](=O)[O-] | inactive: 9.3%
COc1cc2cc(-c3ccc(OC)c(OC)c3C)nc(N)c2cc1OC | active: -92%
NC(=O)c1nsc(C(=O)N(Cc2cccnc2)C(C(=O)NCc2ccc(F)cc2)c2ccc(O)cc2)c1N (stereo not drawn) | inconclusive: -46.9%
CC1CCN(c2ccc(NC(=O)c3ccc([N+](=O)[O-])o3)cc2)CC1 | active: -97.5%
COc1ccc(Nc2ccnc3ccccc23)cc1 | inconclusive: -57.3%
COc1cc(C)c(Cl)cc1S(=O)(=O)n1ccnc1C | inactive: -15.7%
Cc1cc(-n2[nH]c(C)c(C)c2=O)nc(-c2ccccc2O)n1 | inconclusive: -44.3%
CCCC(=O)Nc1ccc(-c2nc3cc(C)c(C)cc3o2)cc1 | inactive: 87.2%

SMILES | activity change, negative = inhibition
CCCn1c(-c2cccc(Br)c2)nc2ccccc21 | inactive: 2.78%
O=c1[nH]c2cccc(Cl)c2c2ccccc12 | inactive: -13.8%
Cn1nc(C(=O)NCCc2ccc(Cl)cc2)c2c1-c1ccccc1S(=O)(=O)C2 | inconclusive: -59.7%
COC(=O)Cn1c(=O)c(C(=O)CCl)c(N)n(Cc2ccccc2)c1=O | inconclusive: -41.9%
COc1ccc(OCC(=O)N2CCN(Cc3ccc(SC)cc3)CC2)cc1 | inconclusive: -50.9%
COC(=O)N1C(=O)[C@](c2ccccc2)(C2CCCCC2)N1C(=O)OC | inactive: 54.2%
Cc1cc(NC(=O)COc2ccccc2)cc(-c2nc3ccccc3o2)c1O | inactive: 2.2%
Cc1ccc(NC(=O)CCc2nnc3ccc(N4CCC5(CC4)OCCO5)nn23)nc1 | inconclusive: -42.3%
O=c1c2ccccc2sn1-c1ccc(F)cc1 | inconclusive: -53%
O=C(c1cccnc1)N1CCN(S(=O)(=O)c2ccc3ccccc3c2)CC1 | inconclusive: -58.4%
O=C(Nc1ccc(F)cc1F)N1CCCC(c2nc(-c3ccc(F)cc3)no2)C1 (stereo not drawn) | inconclusive: -59.9%
CCCSc1nsc(NC(=O)CCC)n1 | active: -103%
O=C(Nc1cc(Cl)ncn1)c1ccccc1 | inactive: 4.65%
C[C@@H]1C=C[C@](Cc2ccccc2)(C(=O)NCCc2c[nH]c3ccccc23)N1C(=O)c1ccccc1 | inconclusive: -48.7%
COc1ccc(Cl)cc1NC(=O)CSc1nccn1-c1ccc(Cl)cc1 | active: -81.5%
CN(Cc1ccncn1)C(=O)CC1C(=O)NCCN1Cc1cccc(Oc2ccccc2)c1 (stereo not drawn) | inconclusive: -56.6%
O=C(NCCCN1CCOCC1)C(=O)NCC1OCCN1S(=O)(=O)c1ccc(F)cc1 (stereo not drawn) | inactive: -1.18%
CCN=C1S/C(=C\c2cn(CC(=O)NCc3ccco3)c3ccccc23)C(=O)N1CC | inconclusive: -44.1%
Oc1ccc(-c2[nH]ncc2-c2nc3ccccc3s2)c(O)c1 | inconclusive: -53.7%
CCc1cccc(NS(=O)(=O)c2ccc3c(c2)CC(C)N3C(=O)C2CC2)c1 (stereo not drawn) | active: -79.6%
COc1ccc(C(=O)c2c(NC(C)=O)sc3c2CCN(C(=O)OC(C)(C)C)C3)cc1 | inconclusive: -50.4%
CCc1c(C)c2ccc(O)c(CN3CCN(c4ccc(F)cc4)CC3)c2oc1=O | inconclusive: -42.7%

SMILES | activity change, negative = inhibition
Cc1cccc(N2CCN(C(=O)c3cc4c(=O)[nH]c5ccccc5c4n3C)CC2)c1C | active: -65.2%
O=C(c1ccco1)N(Cc1ccco1)c1ccc(O)cc1 | inconclusive: -41.5%
CC1CCN(C(=O)CSc2nnc(-c3cccnc3)o2)CC1 | inconclusive: -40.5%
Cc1cc(C)n(-c2nc3ccccc3c(=O)n2OCC(C)C)n1 | inconclusive: -59.1%
COc1ccc(CC(=O)Nc2ccc(S(=O)(=O)N(C)C)cc2)cc1OC | inconclusive: -49.5%
Cc1cc(S(=O)(=O)N2CCCCCC2)c(Cl)cc1Cl | inconclusive: -48%
Cc1ccc(C)c(NC(=O)C2CCN(S(=O)(=O)c3c(C)noc3/C=C/c3cccs3)CC2)c1 | inconclusive: -44.3%
Cc1ccc(C)c(CSC2=NCCN2C(=O)c2cccs2)c1 | inactive: -26%
CCOC(=O)Oc1c(OC)cc(C(=O)O[C@@H]2C[C@@H]3CN4CCc5c([nH]c6cc(OC)ccc56)[C@H]4C[C@@H]3[C@H](C(=O)OC)[C@H]2OC)cc1OC | active: -67.6%
Cc1ccc(NC(=O)C2CCCN(c3ncnc4c3nc3n4CCCCC3)C2)nc1 (stereo not drawn) | inconclusive: -49.3%
Cn1c(=O)c2sccc2n2c(CCCC(=O)Nc3ccc(Oc4ccccc4)cc3)nnc12 | active: -64.7%
CCCOc1ccc(C(=O)Nc2ccc(NC(=O)c3cccs3)cc2)cc1 | inactive: -6.32%
Cc1ccc(NC(=O)c2ccc(=O)n(CC(=O)Nc3ccccc3)n2)cc1 | inconclusive: -50.9%
Cc1ccc(S(=O)(=O)N2CCN(C(C)C(=O)NCC(C)c3ccccc3)CC2)cc1 (stereo not drawn) | inconclusive: 0%
CSCCn1c(C(C)(C)C)cc(C(=O)O)c1C | inconclusive: -50%
O=C1c2ccccc2C2(c3ccc(F)cc3)NCCN12 (stereo not drawn) | inconclusive: -59.9%
Nc1nc(CCl)nc(Nc2cccc3ccccc23)n1 | active: -98.2%
Cc1c(Cl)cccc1NC(=S)N(CCN(C)C)C(C)c1ccccn1 (stereo not drawn) | inconclusive: -48.2%
CC(C)(C)NC(=O)CSc1nnc(-c2ccccn2)n1Cc1ccccc1 | inconclusive: -45.8%
CCc1ccc(-c2nc(SCC(=O)N(CCOC)c3c(N)n(Cc4ccccc4)c(=O)[nH]c3=O)n[nH]2)cc1 | active: -78.7%
Cc1csc(=Nc2c(C)n(C)n(-c3ccccc3)c2=O)n1-c1ccccc1 | inconclusive: -48.6%
COc1cc(CN(C(=O)COc2ccc(F)cc2)c2ccccn2)cc(OC)c1OC | inactive: -2.65%

As a short view, 2 of the compounds above.
SMILES | activity change, negative = inhibition
O=c1[nH]c2cccc(Cl)c2c2ccccc12 | inactive: -13.8%
Cn1nc(C(=O)NCCc2ccc(Cl)cc2)c2c1-c1ccccc1S(=O)(=O)C2 | inconclusive: -59.7%
